This is an account of results in article PMC4254451, “The Crystal Structures of Apo and cAMP-Bound GlxR from Corynebacterium glutamicum Reveal Structural and Dynamic Changes upon cAMP Binding in CRP/FNR Family Transcription Factors”.

The target in the series is T1, GlxR (Cg-GlxR) (Corynebacterium glutamicum) (UniProt Q79VI7).
T1 sequence (looked up): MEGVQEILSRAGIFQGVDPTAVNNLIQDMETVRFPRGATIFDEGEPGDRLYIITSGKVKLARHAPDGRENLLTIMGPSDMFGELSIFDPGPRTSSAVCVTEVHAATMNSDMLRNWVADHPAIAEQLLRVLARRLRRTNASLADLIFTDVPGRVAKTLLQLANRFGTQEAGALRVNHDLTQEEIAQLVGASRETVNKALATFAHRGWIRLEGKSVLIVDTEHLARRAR
Description: fluorescence anisotropy. The settings on record: no cAMP (apo); 100 mM KH2PO4 pH 7.8, 200 mM KCl, 1 mM 1-thioglycerol, 0 or 1.5 mM cAMP, 5 nM labelled DNA; temperature not stated; recombinant protein; residues 1-227; protein details: His6 (N-terminal, pET16b); label: 5'-FITC on strand 1. On the technique in general: Fluorescence polarisation rises when a labelled molecule tumbles more slowly, as on binding a larger partner.

Construct, isoform or probe ends are uncertain for at least one entry. Protein sequences can lack the tags named with them.

By Kd is commonly meant a measure of binding affinity in units of concentration. Take “ATTAATGTGAGTTAGCTCACTCATTA (double strand) [FITC-labelled 26-mer duplex]”: the equilibrium dissociation constant (Kd) came to 8.3 µM.
